Reference: PubChem BioAssay AID504834 (National Center for Advancing Translational Sciences (NCATS), 2011)
Among all 320,000 compounds or so, about 22,000 (6.9%) were called active. Inconclusive results, whose numbers are uncertain, are shown with a selection of clear calls. Calls come from the whole dose curve; as a rule, active = well fitted inhibition curve with a large enough effect; inconclusive = small, poorly fitted or top-dose-only effect, or another doubt; inactive = no such curve, though single readings can be large or run the other way. A potency beside an inconclusive call is a rough fit, not a confirmed value.
% is set by controls: 0 for no effect and ±100 for the full control effect; potency is the fitted concentration of half-maximal effect.

Assay: Primary qHTS for delayed death inhibitors of the malarial parasite plastid, 96 hour incubation
Details: P. falciparum luciferase reporter growth; series mostly up to 28.7 µM; activity change, negative = inhibition: at the top concentration
Outline: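 Delayed-death screen, second-generation endpoint: infected erythrocytes, 2% hematocrit, 0.05% parasitemia final; 96 hours at 37 C, 5% CO2; luciferase detection reagent; luminescence decrease equals reduced growth.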
In the case of `CC(C)c1ccc2c(c1)C(c1cccs1)=NNC(c1ccncc1)=N2`, the “activity change, negative = inhibition” value is reported as inactive: 18.1%. In the case of `COC(=O)CSC(=S)N1C(C)CCCC1C` (stereo not given), the “activity change, negative = inhibition” value is reported as inactive: 0%. With `CCOC(=O)Cc1csc(SCC(=O)/C(C#N)=C(\C)N)n1` the Potency was inconclusive: 11.7 µM [inhibitor, single point]. With `O=C(Cc1cccs1)NCC1CCCO1` (stereo not given) the Potency was inconclusive: 0.828 µM [inhibitor, full curve, poor fit]. With `COCC(=O)N(CCc1ccc(OC)c(OC)c1)Cc1cc2cc(C)ccc2nc1Cl` the “activity change, negative = inhibition” value was inactive: 2.59%. For `COc1ccc2[nH]c(=O)c(CN(C(=O)c3ccco3)C3CCCCC3)cc2c1`, the Potency was inconclusive: 13.1 µM [inhibitor, single point]. With `CCOc1ccc(C(=O)CCC(=O)Nc2ncccc2O)cc1` the Potency was inconclusive: 3.29 µM [inhibitor, single point]. In the case of `CC1(C)C=C(c2ccc(C=O)s2)CC(C)(C)N1C=O`, the Potency is reported as inconclusive: 18.5 µM [inhibitor, single point]. For `CCc1ccc(NC(=S)Nc2cccc(OC)c2)cc1`, the Potency was inconclusive: 11.7 µM [inhibitor, partial curve]. For `CCN(C(=O)COC(=O)c1cc(-c2cccs2)nc2ccccc12)C1CCS(=O)(=O)C1` (stereo not given), the “activity change, negative = inhibition” value was inactive: 8.08%. In the case of `COc1ccc(CC(=O)N2CCOCC2)cc1`, the Potency is reported as inconclusive: 18.5 µM [inhibitor, single point]. With `Cc1ccc(N)c(C)c1` the Potency was inconclusive: 14.7 µM [inhibitor, single point]. With `COc1ccc(-n2c(Cc3cccn3C)nnc2SCC(=O)Nc2cccc(Cl)c2)cc1` the Potency was inconclusive: 14.7 µM [inhibitor, partial curve, poor fit]. With `COc1ccc(NC2SC(=O)N(C)C2=O)cc1` (stereo not given) the “activity change, negative = inhibition” value was inactive: 22.8%. With `O=C(N/N=C/c1ccc[nH]1)c1cc(-c2ccc(Cl)cc2)nc2ccccc12` the Potency was inconclusive: 11.7 µM [inhibitor, partial curve, poor fit]. In the case of `O=C(Nc1ccc(Br)cc1)c1ccccc1CC[N+](=O)[O-]`, the “activity change, negative = inhibition” value is reported as inactive: -8.96%. In the case of `CCn1c(SCC(=O)N/N=C/c2ccc(OC)c(OC)c2)nc2ccccc21`, the “activity change, negative = inhibition” value is reported as inactive: 20.8%. In the case of `COc1ccc(CNc2oc(Cc3cccc4ccccc34)nc2C#N)cc1`, the Potency is reported as inconclusive: 18.5 µM [inhibitor, single point]. With `CCc1ccccc1NC(=O)c1cc(-c2ccc(F)cc2)on1` the “activity change, negative = inhibition” value was inactive: -0.216%. With `Cc1cc(C)n(-c2ccc(C(=O)Nc3cccnc3)cc2)n1` the “activity change, negative = inhibition” value was inactive: 0%. With `N=C1SCC(=O)N1c1ccc(Cl)cc1` the Potency was inconclusive: 13.1 µM [inhibitor, partial curve, poor fit]. With `O=C1c2ccccc2NC(c2cccc(O)c2)N1Cc1ccco1` (stereo not given) the Potency was inconclusive: 18.5 µM [inhibitor, partial curve, poor fit]. For `CCO[C@H]1OC(C(=O)NCc2ccccc2)=C[C@@H](c2ccc3c(c2)OCO3)[C@@H]1CCCO`, the “activity change, negative = inhibition” value was inactive: -2.12%. For `C=CCn1c(SC(C)C(N)=O)nc2sc(CC)cc2c1=O` (stereo not given), the Potency was inconclusive: 0.262 µM [inhibitor, full curve, poor fit]. With `COCC(C)n1c(SCc2ccc(C(=O)OC)cc2)nc2ccccc2c1=O` (stereo not given) the Potency was inconclusive: 18.5 µM [inhibitor, single point]. In the case of `CNCCCCOc1ccc(C(C)(C)C)cc1Cl`, the “activity change, negative = inhibition” value is reported as inactive: 79.8%. For `COC(=O)[C@@]1(Cc2ccc(OC)cc2)[C@H]2c3cc(C(=O)N4CCCC4)n(CCN4CCNC4=O)c3C[C@H]2CN1C(=O)c1ccccc1`, the Potency was active: 1.65 µM. For `CCCn1c(N)c(Sc2ccccc2)c(=O)n(CCC)c1=O`, the Potency was inconclusive: 10.4 µM [inhibitor, single point]. For `COc1ccc(CCNC(=O)/C=C/c2ccco2)cc1OC`, the Potency was inconclusive: 18.5 µM [inhibitor, single point]. In the case of `COc1cc(/C=N/Nc2nc(=O)[nH]nc2C)cc(OC)c1O`, the Potency is reported as inconclusive: 4.15 µM [inhibitor, partial curve, poor fit]. In the case of `CCN(CC)S(=O)(=O)c1ccc2c(c1)nc(SC(C)C(N)=O)n2-c1ccc(OC)cc1` (stereo not given), the Potency is reported as inconclusive: 9.28 µM [inhibitor, partial curve, poor fit]. In the case of `CC1(c2ccc(Cl)cc2)NC(=O)N(CN2CCOCC2)C1=O` (stereo not given), the “activity change, negative = inhibition” value is reported as inactive: 39.9%. In the case of `CCCCCSc1nnc2c(n1)OC(C)N(C(C)=O)c1ccccc1-2` (stereo not given), the Potency is reported as inconclusive: 8.28 µM [inhibitor, partial curve]. With `Cc1ccc(C)c(CSCC(=O)NCc2cccs2)c1` the Potency was inconclusive: 18.5 µM [inhibitor, single point]. In the case of `CC(C)Cn1c(N)c(C(=O)COC(=O)c2ccc3ccccc3n2)c(=O)n(C)c1=O`, the Potency is reported as active: 4.15 µM. For `C(=C\CSc1nnnn1-c1ccccc1)/CSc1nnnn1-c1ccccc1`, the Potency was inconclusive: 9.28 µM [inhibitor, single point]. For `CC(=O)c1cccc(OC(=O)c2ccc3c(=O)n4c(nc3c2)CCC4)c1`, the Potency was inconclusive: 3.7 µM [inhibitor, single point]. For `CCNc1ccc(Br)cc(C(=O)/C=C/c2ccc3c(c2)OCO3)c1=O`, the Potency was inconclusive: 16.5 µM [inhibitor, single point]. With `O=C(N/N=C/c1ccccc1[N+](=O)[O-])c1ccc2nc[nH]c2c1` the Potency was inconclusive: 11.7 µM [inhibitor, single point]. For `CCOc1ccccc1N1CCN(C(=O)c2cccc(S(=O)(=O)N3CCOCC3)c2)CC1`, the Potency was inconclusive: 18.5 µM [inhibitor, single point]. For `CC(C)(C)c1ccc(C(=O)Nc2ccc(C(=O)N3CCOCC3)cc2)cc1`, the Potency was inconclusive: 10.4 µM [inhibitor, single point]. With `O=C(NCCc1c[nH]c2ccc(Cl)cc12)c1ccc([N+](=O)[O-])cc1` the “activity change, negative = inhibition” value was inactive: -56.9%. For `Cc1ccc(C(=O)Nc2ccc(F)cc2)cc1NC1=NC2CS(=O)(=O)CC2S1` (stereo not given), the Potency was active: 9.28 µM. For `CC(C)CCN1CCN(Cc2nc3c(s2)CCCC3)CC1CCO` (stereo not given), the Potency was inconclusive: 9.28 µM [inhibitor, single point]. In the case of `Cc1ccc(C(=O)/C=C/c2ccc(-c3ccc(C)cc3)o2)cc1`, the Potency is reported as inconclusive: 4.65 µM [inhibitor, partial curve].
